Laboratory results from PubChem BioAssay AID1347075 (National Center for Advancing Translational Sciences (NCATS), 2019).
In all, about 400,000 compounds went through this assay and about 5,500 (1.4%) were called active. The shares of active, inactive and inconclusive entries below differ from those in the screen. Calls come from the whole dose curve; as a rule, active = well fitted cell-killing curve with a large enough effect; inconclusive = small, poorly fitted or top-dose-only effect, or effect the other way; inactive = flat fitted curve, though single readings scatter. Potencies of inconclusive entries are doubtful fits and often do not repeat.

Experiment: qHTS assay for MDR1-selective chemotherapeutics: Primary screen using the parental adenocarcinoma cell KB-3-1; note: nearly all actives have a fitted effect of over 60% in size
Conditions: KB-3-1 viability, CellTiter-Glo ATP luminescence, 72 h; activity change, negative = cytotoxic: at 46.1 µM (top of the series)
Method in brief: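 Parental KB-3-1 adenocarcinoma cells in phenol-red-free DMEM with 10% FBS were pin-treated with compounds at several concentrations, incubated 72 h at 37 °C, and viability read by CellTiter-Glo luminescence; concentration-effect curves were fitted after normalization.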
% is set by controls: 0 for no effect and ±100 for the full control effect; potency is the fitted concentration of half-maximal effect.

Row | SMILES | Potency | activity change, negative = cytotoxic
1 | CCOc1ccc(/C=C/C2=CC(C)(C)NC(=S)N2)cc1 | inactive | –
2 | CCc1ccccc1NC(=O)Nc1nnc(N2CCCC2)s1 | inactive | –
3 | Cc1cccc(N(C)S(=O)(=O)c2ccc(-c3cnc(C4CC4)o3)cc2)c1 | inconclusive: 0.0073 µM [cytotoxic, full curve, poor fit] | –
4 | COc1ccc(C(=O)OCC(O)COC(=O)c2ccc(OC)cc2)cc1 | inconclusive: 0.0046 µM [rising, full curve, poor fit] | –
5 | COc1cc(/C=N\NC(C)=O)ccc1OC/C=C/c1ccccc1 | inconclusive: 32.6 µM [cytotoxic, single point] | –
6 | O=C(Cc1ccc(Cl)c(Cl)c1)Nc1ccccc1N1CCCC1 | inconclusive: 11.6 µM [cytotoxic, partial curve] | –
7 | COC(=O)c1ccc2[nH]c3cccc(/C(=C/c4ccccc4)c4ccccc4)c3c2c1 | inconclusive: 29.1 µM [cytotoxic, single point] | –
8 | Cc1c(C(=O)NCc2ccc(C(C)C)cc2)sc(=O)n1Cc1ccc(S(=O)(=O)N(C)C)cc1 | inconclusive: 5.8 µM [cytotoxic, full curve] | –
9 | Cc1ccc(C)c(N2CCN(S(=O)(=O)c3ccc4oc(=O)c5ncn(C)c5c4c3)CC2)c1 | inactive | –
10 | CC1CCCC(C)N1C(=O)COC(=O)C1CCN(S(=O)(=O)c2ccc3c(c2)OCCO3)CC1 (configuration not stated) | – | inconclusive: -11.1%
11 | CC1CC(Nc2ccccc2)c2ccccc2N1C(=O)c1ccco1 (configuration not stated) | inactive | –
12 | O=C(CSC1=NCCS1)N1CCN(c2ccc(Cl)cc2)CC1 | inconclusive: 16.4 µM [cytotoxic, single point] | –
13 | Cc1c(C(=O)N2CCN(c3ccccc3F)CC2)oc2c1C(=O)CC(C)(C)C2 | – | inconclusive: -47.5%
14 | COc1cc(C(=O)N(C)CC(=O)Nc2cccc(F)c2)ccc1OCc1ccccc1 | inactive | –
15 | CCCCNC(=O)C1(C)CCCCN1Cc1ccc(-c2ccccc2)cc1 (configuration not stated) | inactive | –
16 | O=C(CSCC(=O)Nc1ccccc1)N/N=C/c1c(O)ccc2ccccc12 | inconclusive: 5.62 µM [cytotoxic, full curve] | –
17 | CCCC(=O)Nc1nc2ccc(S(=O)(=O)N3CCCCC3)cc2s1 | active: 13 µM | –
18 | CC(C)c1ccc(/C=N/NC(=O)c2cccc(Cl)c2)cc1 | active: 13 µM | –
19 | CN1CCN(C(=O)c2cnn(-c3ccccc3)c2NC(=O)c2ccccc2Br)CC1 | inactive | –
20 | CCCCc1c(O)c2ccccc2[nH]c1=O | inactive | –
21 | Cc1cc(N2CCCC2)c(F)cc1/C=C\[N+](=O)[O-] | inconclusive: 25.9 µM [cytotoxic, single point] | –
22 | Cc1ccccc1OCCCC(=O)Nc1ccc2c(c1)OCO2 | inconclusive: 23.1 µM [cytotoxic, partial curve, poor fit] | –
23 | CCn1cc[n+](C)c1P(c1ccccc1)c1ccccc1 | active: 7.31 µM | –

Row | SMILES | Potency | activity change, negative = cytotoxic
24 | O=C(NCCO)c1cccc(-c2cccc3nccn23)c1 | – | inconclusive: 0%
25 | COc1ccc(/C=C/c2nnc(NC(=O)CSc3ccc(C)cc3)s2)cc1 | inconclusive: 23.1 µM [cytotoxic, single point] | inconclusive: 0%
26 | O=C1/C(=C/c2ccccc2)NC(=S)N1C(c1ccccc1)c1ccccc1 | inconclusive: 3.26 µM [cytotoxic, partial curve, poor fit] | –
27 | COc1cc(C(=O)NCC2CCCO2)ccc1OCc1ccccc1Cl (configuration not stated) | inactive | –
28 | Cc1ccccc1C(=O)Nc1nnc(-c2ccc(F)cc2)o1 | inconclusive: 23.1 µM [cytotoxic, partial curve, poor fit] | –
29 | CC1=C(C(=O)N(C)C)CC(CC(=O)NCc2cccc3ccccc23)C(=O)N1Cc1ccccc1 (configuration not stated) | inactive | –
30 | COc1ccc(NC(=O)CN(C)C(=O)C2=NN(c3ccccc3)C(=O)CC2)cc1 | inactive | –
31 | C=CCC[C@@H](Cc1ccc(F)cc1)C(=O)OC[C@H](Cc1c[nH]c2ccccc12)NC(=O)[C@H](CC=C)CC(=O)NCCO | inconclusive: 29.1 µM [cytotoxic, single point] | –
32 | O=C1CCN(Cc2ccccc2)CCN1[C@H](CSc1ccccc1)Cc1ccccc1 | inconclusive: 18.4 µM [cytotoxic, single point] | –
33 | COc1ccccc1-c1cc(C(F)(F)F)nc(S(=O)(=O)CCCC(=O)N2CCCCC2C)n1 (configuration not stated) | inconclusive: 29.1 µM [cytotoxic, single point] | –
34 | O=[N+]([O-])c1ccc(Oc2cccc3cccnc23)c([N+](=O)[O-])c1 | inactive | –
35 | CCOC(=O)Nc1ccc(/C=C/c2ccnc3ccccc23)cc1 | inactive | –
36 | COC(=O)[C@@]1(Cc2ccc(F)cc2)[C@H]2c3cc(C(=O)N4CCCC4)n(CCSCCO)c3C[C@H]2CN1C(=O)c1ccccc1 | inconclusive: 20.6 µM [cytotoxic, single point] | –
37 | N#Cc1ccc(/C=C/C(=O)c2ccco2)cc1 | inactive | –
38 | CCCCCN(C(=O)CCC(=O)OCC(=O)Nc1cccc(CC)c1)c1c(N)n(CCCC)c(=O)[nH]c1=O | – | inconclusive: 30.3%
39 | CCc1ccc(NCc2cc3cc4c(cc3n(CC(=O)Nc3ccc(Cl)cc3)c2=O)OCO4)cc1 | inconclusive: 29.1 µM [cytotoxic, single point] | –
40 | Cc1ccc(C(C(=O)NC2CCCCC2)N(C(=O)Cc2c[nH]c3ccccc23)c2ccccc2C)o1 (configuration not stated) | inconclusive: 25.9 µM [cytotoxic, single point] | –
41 | Cc1nc(N)ncc1-c1ccc2c(c1)OCO2 | inconclusive: 23.1 µM [cytotoxic, single point] | –
42 | CCOC(=O)c1sc2ccccc2c1S(=O)(=O)Nc1ccc(N(C)C)cc1 | inconclusive: 32.6 µM [cytotoxic, single point] | –
43 | CCCNC(=O)c1ccccc1NC(=O)COc1ccc(OC)cc1 | inactive | –
44 | Cc1ccc(NC(=O)c2ccc(NC(=O)N3CCSc4ncccc43)cc2)cc1Cl | inconclusive: 16.4 µM [cytotoxic, single point] | –
45 | Clc1ccc(-n2nnnc2-c2ccno2)cc1 | inconclusive: 0.651 µM [rising, full curve, poor fit] | –
46 | CCCCc1c(-c2ccc(Cl)cc2)ncn1CCc1ccccc1OC | inconclusive: 29.1 µM [cytotoxic, single point] | –

Whole records, looked up by structure. Order of values: Potency	activity change, negative = cytotoxic
CCc1ccccc1NC(=O)Nc1nnc(N2CCCC2)s1 is entered as inactive	–
Cc1cc(N2CCCC2)c(F)cc1/C=C\[N+](=O)[O-] is entered as inconclusive: 25.9 µM [cytotoxic, single point]	–
COc1cc(C(=O)N(C)CC(=O)Nc2cccc(F)c2)ccc1OCc1ccccc1 is entered as inactive	–
